This assay is described as follows: qHTS Assay for Lipid Storage Modulators in Drosophila S3 Cells.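 On cell number change: cells counted by Cell Tracker Red CMTPX staining in the red channel.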 Conditions: BODIPY lipid droplet fluorescence, 18-24 h; for cell number change: measured here: cell count max response, cells fed with added oleic acid. An outline of the steps:
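Drosophila S3 cells loaded with oleic acid (400 uM, as added) and compounds at several concentrations; lipid droplets imaged by 488-nm laser-scanning cytometry, 500–530 nm intensity and object ratio to cell channel. Percent activity normalized to 20 uM Triacsin C.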

Where [1] appears, read: measured here: lipid fluorescence (Fed channel) AC50, cells fed with added oleic acid.
The mark [2] stands for this setting: measured here: cell number channel AC50, cells fed with added oleic acid.

The list shows a part of the results. Shown are side measurements of this screen, not its main read-out; they come without a call. Compounds called inactive in the main read-out are mostly missing here. Potencies come from curve fits of mixed quality, noted in brackets.

As for `COc1ccc(-c2cc(C(=O)Nc3c(C)nn(Cc4ccccc4Cl)c3C)no2)cc1OC`, the cell number change was -9.58%. For the same compound, the half-maximal activity concentration (AC50) under setting [1] is 0.259 µM [rising, full curve, poor fit].
In the case of `CN1CCN(Cc2cccc(Oc3ccc(Cl)cc3)c2)CC1`, the cell number change is -30.6%. Moreover, the concentration at half-maximal activity (AC50) under setting [2] is 0.651 µM [falling, full curve]. The AC50 under setting [1] is 0.58 µM [rising, full curve, poor fit].
`COc1ccc(NC(=O)c2cc([N+](=O)[O-])ccc2N2CCCC2)cc1S(N)(=O)=O`: the cell number change worked out at 17.5%.
With `CCn1c(SCc2nc3ccccc3c(=O)[nH]2)nc2ccccc21`, the cell number change is -44.2%. The AC50 under setting [2] was 29.1 µM [falling, single point].
Take `c1coc(-c2nc3c([nH]2)CCc2nonc2-3)c1`: the cell number change amounted to 24.3%. Under setting [1], the half-maximal activity concentration (AC50) is 3.66 µM [rising, single point].
With `CCOc1ccc(NC(=O)CN(C)C(=O)CCNC(=O)c2ccc(Br)cc2)cc1OCC`, the cell number change worked out at 25.2%.
On to `Cc1ccc(F)cc1NC(=S)NCCc1ccccc1`, for which the cell number change is -39.2%. The concentration at half-maximal activity (AC50) under setting [2] was 0.731 µM [falling, full curve, poor fit]. In addition, under setting [1], the AC50 is 32.6 µM [falling, partial curve, poor fit].
For the compound `Cn1c(SCc2ccccn2)nnc1-c1ccncc1`, the cell number change was found to be 12.4%.
For `CCOc1ccccc1NC(=O)CN1C(=O)CSC(C)C1=O` (stereo unspecified), the concentration at half-maximal activity (AC50) under setting [2] is 1.64 µM [falling, single point].
For `CCC(=O)N1CCc2cc(Br)cc(S(=O)(=O)N3CCC(C(=O)NC(C)C)CC3)c21`, the cell number change is -28.6%. Moreover, the concentration at half-maximal activity (AC50) under setting [2] is 0.0231 µM [falling, full curve, poor fit].
In the case of `COc1ccc2c(c1)-c1nc(/N=C/c3ccccc3O)sc1CC2`, the cell number change worked out at 2.44%.
Consider `Cc1ccc(NC(=O)CSc2nnc(CSc3nc(C)cc(C)n3)n2Cc2ccco2)c(C)c1`, for which the half-maximal activity concentration (AC50) by setting is: under setting [2], 1.64 µM [rising, partial curve]; under setting [1], 9.2 µM [rising, partial curve].
`CCOc1ccc(CNc2nnnn2C)cc1`: the cell number change was determined as 19.9%.
Regarding `N#Cc1ccc2c(c1)C[C@]1(c3ccsc3)OC3=C(C(=O)OC4(CCCCC4)C3)C2O1`, the cell number change was 5.68%. In addition, the AC50 under setting [1] is 0.299 µM [rising, partial curve].
As for `Cc1cc(NC(=O)COC(=O)C(C)Oc2ccc(Cl)cc2Cl)no1` (stereo unspecified), the cell number change stood at 15.8%.
Turning to `CCOC(=O)c1ccc2c(c1)N(CC(=O)N1CCCC1)C(=O)C(C)(C)O2`, the cell number change was -10.7%. Further, the AC50 under setting [1] was 0.103 µM [falling, full curve, poor fit].
`CCN(c1ccccc1)c1ncnc2c1cnn2-c1ccccc1`: the cell number change turned out to be 52.9%. Besides, under setting [2], the AC50 is 11.6 µM [rising, partial curve]. Further, the AC50 under setting [1] is 29.1 µM [rising, single point].
`C=CCNC(=O)CSc1nc2ccccc2c(=O)n1CCc1ccc(OC)c(OC)c1`: the cell number change was -26%. In addition, the AC50 under setting [1] is 20.6 µM [falling, single point].
Take `O=C(NCC1COCCO1)c1cc(COc2ccc(F)cc2F)on1` (stereo unspecified): the concentration at half-maximal activity (AC50) under setting [1] was 3.26 µM [falling, single point].
Same read-out and setting: to `O=C1c2ccccc2C(=O)N1CCSc1nc2ccccc2c(=O)n1CCCN1CCOCC1` belongs 1.84 µM [rising, partial curve, poor fit].
On to `COc1ccc(-c2cc(C(F)(F)F)n3ncc(C(=O)NCC4CCCO4)c3n2)cc1OC` (stereo unspecified), for which the cell number change is -2.99%. For the same compound, the AC50 under setting [1] was 32.6 µM [falling, single point].
For the compound `O=C(NCc1ccc2c(c1)OCO2)c1cccc(S(=O)(=O)N2CCOCC2)c1`, the cell number change was found to be 8.28%. In addition, the half-maximal activity concentration (AC50) under setting [1] is 11.6 µM [rising, partial curve].
Regarding `C[C@H](NC(=O)c1nc[nH]c1C(=O)N1CCNCC1)C(=O)OC(C)(C)C`, the cell number change was -30.5%. The AC50 under setting [2] is 0.13 µM [falling, full curve, poor fit]. Also, the AC50 under setting [1] was 0.13 µM [falling, full curve, poor fit].
For `CC12COC3(C(=O)NCCc4ccccc4)CC1CCC32C` (stereo unspecified), the cell number change was -0.326%.
On the same count and under the same terms, next, `CCOC(=O)c1c(-c2ccccc2)csc1NC(=O)CSc1nc(C)cc(C)n1`: 13.6%.
With `CCc1nc2ccc(C(=O)NCCc3ccco3)cc2nc1CC`, under setting [1], the AC50 is 8.2 µM [falling, partial curve].
Consider `Cc1cc2cc3c(cc2nc1SCC(=O)OC(C)C)OCO3`, for which the cell number change was found to be 33.7%. For the same compound, the AC50 under setting [2] is 0.0116 µM [rising, full curve, poor fit]. Further, under setting [1], the concentration at half-maximal activity (AC50) is 18.4 µM [rising, partial curve, poor fit].
For the compound `O=C(Cn1cc(C(F)(F)F)ccc1=O)N1CCN(S(=O)(=O)c2ccc(Cl)cc2)CC1`, the cell number change is -5.71%.
As for `COC(=O)CCCC1=CC2=CC(=O)C(C)(OC(=O)c3cccs3)C(=O)C2=CN1CCc1ccccn1` (stereo unspecified), the cell number change was found to be 28%. For the same compound, the AC50 under setting [1] is 0.517 µM [rising, partial curve].
Regarding `CCCCN(CCCC)CC1OCc2ccccc2CO1`, the cell number change was 21.6%. The half-maximal activity concentration (AC50) under setting [1] was 32.6 µM [rising, partial curve].
`CN1c2ccccc2C(C)(C)C12C=Nc1c(cc(N3CCOCC3)c3ccccc13)O2` (stereo unspecified): the cell number change is -20.3%. Also, the concentration at half-maximal activity (AC50) under setting [1] is 29.1 µM [falling, single point].
Regarding `CS(=O)(=O)c1ccccc1C(=O)NC1CCCc2ccccc21` (stereo unspecified), the cell number change came to 52.7%.
Turning to `N=c1c2c(-c3ccccc3)c(-c3ccccc3)oc2ncn1CCCN1CCOCC1`, the cell number change was -34.8%. Further, the AC50 under setting [2] is 9.2 µM [falling, partial curve, poor fit]. Besides, the AC50 under setting [1] was 23.1 µM [falling, partial curve, poor fit].
Turning to `CCC(=O)OCC(=O)c1cc(C)n(-c2ccc(Br)cc2)c1C`, the cell number change was -28.6%. Moreover, the concentration at half-maximal activity (AC50) under setting [1] is 6.51 µM [falling, partial curve, poor fit].
Turning to `O=C(Cn1nnc2ccccc21)c1cccc([N+](=O)[O-])c1`, the cell number change was 2.37%. Besides, the concentration at half-maximal activity (AC50) under setting [1] is 2.31 µM [rising, single point].
For `CC(C)(C)n1nc2c(c1NC(=O)c1ccc(S(=O)(=O)N3CCCC3)cc1)CSC2`, the cell number change was -0.662%.
For `COc1ccc(C(=S)N2CCOCC2)cc1OC(=O)c1ccc([N+](=O)[O-])cc1`, the cell number change was determined as 32.5%. The AC50 under setting [2] is 9.2 µM [rising, partial curve].
Consider `CCOC(=O)C1CCN(C(=O)C2CC(=O)N(c3ccc4c(c3)OCCO4)C2)CC1` (stereo unspecified), for which the cell number change is 31.4%. Further, the AC50 under setting [2] is 16.4 µM [rising, partial curve, poor fit]. Moreover, the AC50 under setting [1] is 0.0058 µM [rising, full curve, poor fit].
For the compound `O=C(Cn1cc2c(n1)CCCC2)NCCCN1CCN(Cc2ccccc2)CC1`, the cell number change is -4.69%. Further, under setting [2], the AC50 is 0.00461 µM [falling, full curve, poor fit]. Under setting [1], the concentration at half-maximal activity (AC50) is 3.66 µM [rising, full curve, poor fit].

(Values after PubChem BioAssay AID2685 (National Center for Advancing Translational Sciences (NCATS), 2010).)
